From article PMC4492089, “FOXM1 binds directly to non-consensus sequences in the human genome” come the findings set out here.

Residue numbers refer to the chain shown, from its start. Construct, isoform or probe ends are uncertain for at least one entry. For part of these data: The comparison behind a weaker result is the experiment's own reference, which may not be listed here. Tags and fusion partners may be left off the protein sequences shown. A value given as a limit tells only on which side of the number the result lay.

Assay in all cases: fluorescence polarization
(In general: Polarisation of emitted light reports the rotation of a fluorescent probe.)

Data set [1] concerns the target T1, FOXM1 DBD N283A (UniProt Q08050).
T1 sequence (looked up, limits assumed): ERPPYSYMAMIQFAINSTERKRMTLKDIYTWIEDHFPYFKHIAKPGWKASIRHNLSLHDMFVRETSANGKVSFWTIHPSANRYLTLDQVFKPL
Conditions: binding did not reach saturation; FP: 50 mM Tris-HCl pH 7.5, 5 mM MgCl2, 1 mM DTT, 2% glycerol; protein 80 nM-5 uM; temperature not stated; recombinant protein; protein details: GST; label: 5' 6FAM on top strand.

In data set [2] the target is T2, FOXM1 DBD N283A/H287A (UniProt Q08050).
T2 sequence (looked up, limits assumed): T1 sequence (looked up, limits assumed) with H53A
Conditions: binding did not reach saturation; FP: 50 mM Tris-HCl pH 7.5, 5 mM MgCl2, 1 mM DTT, 2% glycerol; protein 80 nM-5 uM; temperature not stated; recombinant protein; protein details: GST; label: 5' 6FAM on top strand.

Data set [3] has as its system T3, FOXM1B DBD WT (GST fusion).
T3 sequence (looked up, limits assumed): T1 sequence (looked up, limits assumed) with A49N, P92Q, L93Q
Conditions: Kd could not be determined; FP: 50 mM Tris-HCl pH 7.5, 5 mM MgCl2, 1 mM DTT, 2% glycerol; protein 80 nM-5 uM; temperature not stated; recombinant protein; protein details: GST; label: 5' 6FAM on top strand.

For “AAACAAACAAACAATC (double strand) [FKH consensus 16-mer]”, the Kd in data set [1] and in data set [2] was over 5 µM throughout. Regarding “TCGGGAGCATGAGTGC (double strand) [PLK1 16-mer]”, the binding result in data set [3] is “binds more weakly”.

What is called Kd is a measure of binding affinity in units of concentration.
